The full ranking holds about 33,000 sequences; the median of “E-score (-0.5 to 0.5)” is about -0.015, and the highest 2% start at about 0.3. Some of the results follow.
biological target: T1, Abf1 (UniProt P14164); assay: PBM E-score (8-mer binding enrichment) (E-score (-0.5 to 0.5)); higher = stronger / more preferred TF binding; conditions: protein concentration: 200 nM; construct: GST-full length
T1 sequence: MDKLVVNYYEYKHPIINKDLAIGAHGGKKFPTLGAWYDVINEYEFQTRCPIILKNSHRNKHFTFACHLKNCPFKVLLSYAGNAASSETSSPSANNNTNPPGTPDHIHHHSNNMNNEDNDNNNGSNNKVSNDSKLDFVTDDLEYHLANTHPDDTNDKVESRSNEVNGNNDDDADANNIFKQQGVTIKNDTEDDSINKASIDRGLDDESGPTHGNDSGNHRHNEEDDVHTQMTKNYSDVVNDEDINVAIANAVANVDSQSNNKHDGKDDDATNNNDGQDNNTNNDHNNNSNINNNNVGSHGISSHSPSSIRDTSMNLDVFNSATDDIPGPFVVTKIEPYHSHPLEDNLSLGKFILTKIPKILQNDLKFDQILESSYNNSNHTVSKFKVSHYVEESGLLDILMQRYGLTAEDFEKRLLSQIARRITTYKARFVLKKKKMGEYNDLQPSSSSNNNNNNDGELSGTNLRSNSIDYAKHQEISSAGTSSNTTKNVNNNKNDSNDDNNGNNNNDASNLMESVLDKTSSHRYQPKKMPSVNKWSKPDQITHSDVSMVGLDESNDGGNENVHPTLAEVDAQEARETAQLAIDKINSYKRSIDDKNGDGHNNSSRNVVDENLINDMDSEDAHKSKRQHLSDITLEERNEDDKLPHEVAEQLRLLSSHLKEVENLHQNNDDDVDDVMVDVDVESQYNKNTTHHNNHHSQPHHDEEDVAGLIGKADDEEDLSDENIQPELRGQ
How it was run: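 For each ungapped eight-base word taken together with its reverse complement, the Universal PBM Analysis Suite assigned an E-score. Binding data came from GST-tagged yeast transcription factors, applied at about 100-200 nM, on universal all-10-mer Agilent arrays made double-stranded by primer extension. Fluorescent anti-GST marked bound protein, and scans were normalised with masliner.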

| Sequence | PBM E-score |
| --- | --- |
| CCACTAGG | -0.26 |
| CTTCATAA | -0.0242 |
| GGTCGCAC | -0.145 |
| CGACAACA | 0.115 |
| ATTTTCCA | 0.236 |
| CATTGACC | 0.0479 |
| GGGTCCTA | -0.172 |
| ACTTCCAT | 0.0613 |
| GCTGTGCC | -0.18 |
| CCAATAAG | -0.0114 |
| GAGCTACC | -0.0673 |
| GTATCCGA | -0.0701 |
| CCACGGAA | 0.273 |
| GAAGTCGC | -0.0321 |
| ACGCCTTA | 0.0359 |
| GAGAAGCC | -0.0881 |
| TGCCCGAA | 0.0588 |
| GTACACAC | 0.0307 |
| GAGTGGCA | 0.0148 |
| AGTCTCAA | -0.0389 |
| ACTACCTG | -0.151 |
| ACAAGGCA | -0.0394 |
| CAGCCACG | 0.07 |
| AAACTCTT | -0.164 |
| GACAAGGA | 0.0819 |

| Sequence | PBM E-score |
| --- | --- |
| CTAGTGCC | -0.114 |
| CCTTGGAA | -0.0298 |
| GTGGCGGA | -0.105 |
| AGGATACA | 0.147 |
| CCTGAGCA | -0.0528 |
| ACTACCAC | -0.109 |
| AATCCGTC | 0.0665 |
| CGAAGAAG | 0.123 |
| GAACGGGA | -0.0962 |
| ACCCAAGC | -0.215 |
| AGGGATTA | 0.038 |
| AGAAATCC | -0.0538 |
| GGCGTAAA | -0.0418 |
| ACCGTCGA | 0.18 |
| ATTGAGAA | 0.19 |
| AGTGGTAA | 0.0352 |
| CGTCCATC | 0.0706 |
| CGAAGATC | 0.107 |
| ACCTGTCG | -0.065 |
| CGTCGAAG | 0.188 |
| CTTGATGA | 0.197 |
| CTAAATAC | 0.19 |
| TGACTAAA | 0.114 |
| AAAAGGCT | -0.0975 |
| ACTAGGTA | 0.0698 |

| Sequence | PBM E-score |
| --- | --- |
| CCGACATA | 0.132 |
| TGGGCCCA | -0.0418 |
| TAACCAAA | 0.104 |
| CACAAACC | -0.231 |
| ATGCACGA | 0.362 |
| AACTACAT | 0.0192 |
| ACTTCTAT | 0.0524 |
| CCTCCAGG | -0.309 |
| CTCAGGAC | -0.0804 |
| CCCCCAAG | -0.284 |
| AGCCGAAC | -0.0523 |
| CCAGCACG | 0.104 |
| GACCGCAA | -0.0702 |
| GCAACCTA | 0.00521 |
| GCGGTTCA | -0.188 |
| CATCTCTA | 0.0193 |
| AAGAACCG | -0.0787 |
| ACATTCCT | -0.0383 |
| ACGAACAG | 0.0741 |
| CGCCGATC | -0.0795 |
| TGGGACAA | 0.0227 |
| GCCAAAAA | 0.0859 |
| ATAAACAC | -0.0853 |
| CGCCCTGA | -0.0612 |
| CTGGTATC | 0.0225 |

Some of the entries above, reformatted:
Sequence,PBM E-score
ATGCACGA,0.362
GCAACCTA,0.00521
AAGAACCG,-0.0787
CGCCCTGA,-0.0612

The listing continues:

| Sequence | PBM E-score |
| --- | --- |
| GCATGAAA | -0.0167 |
| GCACCGCC | -0.318 |
| ACGATCTG | 0.203 |
| AGCAGGGC | -0.105 |
| GATCGGTA | 0.0856 |
| AAGACATT | 0.0353 |
| ACATGGAG | -0.0303 |
| ACAAGTGT | -0.00562 |
| ATAATTAA | 0.274 |
| AGCATCAC | -0.0618 |
| GAGCTCCA | -0.0124 |
| CAAGTTTA | -0.117 |
| GCGGTTAC | 0.115 |
| GATCGAAC | 0.00758 |
| CCCAGTGC | -0.126 |
| CGAACGAA | 0.09 |
| AGCTCTCA | -0.014 |
| GTTTTGCA | 0.131 |
| GAGCTTCA | -0.131 |
| AGTTTCTG | -0.0446 |
| ACGAATTG | 0.202 |
| CTAAGCAA | -0.0898 |
| GTTTAGTA | 0.155 |
| AAGCTCTG | -0.0961 |
| AATCCGAG | -0.145 |

| Sequence | PBM E-score |
| --- | --- |
| AGGAATGC | -0.18 |
| AACAGCAC | -0.13 |
| TAACAGCA | 0.0285 |
| GCTGAGGA | -0.131 |
| ACGGTTAG | -0.0669 |
| GCATCGGA | -0.0251 |
| CGGATTCA | -0.138 |
| ACGTACCA | 0.0604 |
| AATCTCTC | 0.0576 |
| CTTTGACC | -0.0936 |
| GGCCTTGA | -0.16 |
| TCTTTCAA | -0.107 |
| AGTCTTTG | -0.138 |
| ACCACTCG | 0.187 |
| CCCTCCTC | -0.292 |
| GTAGTGGA | 0.123 |
| ACCCTAGC | -0.191 |
| ATACATAC | 0.0699 |
| AAATAAGT | 0.199 |
| ATAGCAGC | -0.0629 |
| CGTCATGA | 0.196 |
| ATACCGAG | -0.0976 |
| ACTGGTAC | -0.0194 |
| ATTTGCCC | -0.00616 |
| CGTGAACA | 0.22 |

| Sequence | PBM E-score |
| --- | --- |
| AATTAGGC | -0.0201 |
| ATATGTGC | -0.0574 |
| CTCATTTC | 0.0189 |
| GGGTATTA | -0.106 |
| ACCCGAAA | -0.193 |
| ACGAGGTC | 0.172 |
| GGCCGTAC | 0.367 |
| GCGGGTAA | -0.127 |
| AGCATTAT | 0.18 |
| CATAGAGG | -0.0381 |
| CGTACCGA | 0.232 |
| CCTTTCTC | -0.154 |
| CAGTCATC | -0.136 |
| CCACCTGC | -0.19 |
| ATATATTC | 0.179 |
| CTGCATCC | -0.0692 |
| ACAAACAA | 0.0373 |
| AATCCGGC | -0.21 |
| GTCCTTAA | 0.163 |
| CCTAATTA | -0.166 |
| CCCCCATC | -0.367 |
| TCCGTCCA | -0.0678 |
| ATAGTCTA | -0.138 |
| TAGGTCAA | 0.0576 |
| CGTAATAG | 0.112 |

| Sequence | PBM E-score |
| --- | --- |
| AGTCGTGC | 0.0998 |
| AGGTCCCC | -0.261 |
| CAGGTGCG | 0.0401 |
| ACTCAATC | 0.0592 |
| TAGTTAGA | 0.0462 |
| ATGTTAGC | 0.0355 |
| AGTTGCAC | 0.0117 |
| ACGTTCGC | -0.118 |
| CCATGAAC | 0.0596 |
| AGAACGGC | 0.178 |
| TATGGACA | 0.0549 |
| AATCAACG | 0.0811 |
| ACTGGCTC | -0.0908 |
| GTCGAAAC | -0.0844 |
| ATGAACGC | -0.0808 |
| CAAAAATA | 0.153 |
| GGTTGTAC | -0.019 |
| CTACAGGC | -0.279 |
| CACTTCGA | 0.223 |
| GCCACGCC | -0.12 |
| ATAGCGTC | -0.062 |
| GATTCAGC | -0.147 |
| ACATGTTG | 0.0956 |
| CCAAATCC | -0.212 |
| ACATTTCC | 0.211 |

No new results follow: entries from further up.

| Sequence | PBM E-score |
| --- | --- |
| AATCAACG | 0.0811 |
| ACTGGCTC | -0.0908 |
| GTCGAAAC | -0.0844 |
| ATGAACGC | -0.0808 |
| CAAAAATA | 0.153 |
| GGTTGTAC | -0.019 |

Additional results.

| Sequence | PBM E-score |
| --- | --- |
| GCGAGGGA | -0.134 |
| CTATCCGA | -0.0191 |
| CAGACTGG | -0.159 |
| CCACATCC | -0.0571 |
| TCCTATAA | 0.0562 |
| TGAAGAAA | -0.0394 |
| GAAGACAA | 0.137 |
| CAATAATG | -0.0471 |
| GCCTAGAA | -0.0468 |
| TGTTCCAA | -0.0305 |
| CAAAGGTA | 0.105 |
| GGCACAAC | -0.105 |
| GTTCCTAA | -0.0556 |
| ACATTGAC | 0.0983 |
| CCAACTCA | -0.154 |
| GCATGAGA | 0.0456 |
| CGAGCTCC | 0.0327 |
| CCTCACAC | -0.123 |
| ACTACTGC | -0.0574 |
| CAAACGGG | -0.0186 |
| AGGGGTGA | 0.0129 |
| ACTATCGA | 0.0926 |
| ACTTTGGC | -0.142 |
| ATAAAACG | 0.284 |
| CTCGCTGA | -0.0237 |

As entered above:
GCGAGGGA | PBM E-score: -0.134
GCATGAGA | PBM E-score: 0.0456

(further entries)

| Sequence | PBM E-score |
| --- | --- |
| CCGCAGCG | -0.267 |
| GAACCGTA | 0.168 |
| GCGTAAAC | -0.0699 |
| CAGGGAAA | -0.16 |
| AAGCTGGC | -0.0327 |
| AGGTTCGG | -0.15 |
| GATATGGA | 0.235 |
| AGGCGACA | -0.157 |
| ATACATTA | 0.208 |
| ATCCGTGG | -0.0109 |
| AATCCGAA | -0.214 |
| GCATTTCA | -0.037 |
| AGACCGGC | -0.168 |
| AATGTCCC | 0.0778 |
| CAGAACCC | -0.131 |
| CTGCCCTC | -0.279 |
| GACTAGTC | -0.214 |
| AGTATACC | -0.00776 |
| GTACCCAA | 0.0903 |

Reference: the supplement of paper PMC3334620
